Laboratory results from patent US20220362278A1, “RENAL TARGETING-TYPE DRUG DELIVERY CARRIER HAVING EXCELLENT BIODEGRABILITY” (priority 2019, published 2022).
Some entries repeat one wording, which the source may state once for all of them.

Test: Releasability of serine and biodegradability: PD-10 fractionation of kidney homogenate radioactivity
Settings: PD-10 column
Protocol: The kidney after blood removal was immediately ice-cooled, purified water (4 mL) was added and homogenized. A saturated potassium chloride solution (1 mL) was added to the prepared kidney homogenate, and the mixture was allowed to stand at 4° C. overnight and then centrifuged. The centrifuged supernatant (1 mL) was developed on a PD-10 column with 0.1 M acetate buffer (pH 6.0), and the radioactivity of the fraction was measured.

Substance | radioactivity in high / low molecular weight fraction, sample before administration
^111In-labeled poly-L-lysine | on the high molecular weight fraction side
^111In-labeled serine-modified poly-L-lysine [^111In-labeled compound (Ia)] | on the high molecular weight fraction side
^111In-labeled PAMAM(G3) | on the high molecular weight fraction side
